Experimental data: PubChem BioAssay AID1508600 (Functional Genomics Laboratory (NCATS/FGL), 2020)
Among all 53,000 sequences or so, about 3,700 (7%) were called active.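 The calls were made as follows: active = gene knockdowns whose robust z-score for IL-1 alpha signal is at least 2 or at most -2, so actives lie on both sides; inactive = the rest.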 Some of the results follow.

test: Components of the Cytosolic LPS Sensing Pathway: Gene Identification via Genome-wide siRNA Screen; details: RAW264.7 macrophages, IL-1a HTRF, actives lie on both sides, screened at 100 nM (by protocol), cells primed 5 h with Pam3CSK4 first;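 also: robust z of the log signal after scaling to non-targeting control siRNA wells of the plate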
Summary of the method: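 Mouse macrophage line RAW264.7 is transfected with siRNA (100 nM final), grown 48h, primed with TLR ligand Pam3CSK4 5 h and given intracellular LipidA 24 h. IL-1a in supernatant is read by HTRF and viability by luminescence.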

| Sequence | z-score |
| --- | --- |
| GGGAGCUGUUAACCUCAUCTT against Mthfr | active: 3.34 |
| GCACAAAUUCAUCACACGATT against Stk25 | inactive: 1.29 |
| GGCAUCGAGAUUUAAUUGATT against Usp27x | inactive: -0.179 |
| GGAUUUGACCGUAAAAAGATT against Pcsk2 | inactive: 0.439 |
| GGCCAUUUGUUAGGACCUGTT against Prmt6 | inactive: 0.205 |
| GGCUCAAAGUCCUCAGAGCTT against Atp6v1e1 | active: -2.15 |
| GGAAACAUGAUGUUUUAAGTT against Bcl9 | inactive: -0.183 |
| GGAAAACAUGUUCUCAUCUTT against 4930433N12Rik | inactive: 0.937 |
| GGAAUGUCCAAAGCAUUUATT against Olfr911-ps1 | inactive: -0.421 |
| GGUGUUCCAAGAGUCGUCATT against Hrob | inactive: 0.196 |
| CCACUUGGUGCUAAAAAAATT against Pgap2 | inactive: -0.319 |
| GCAGCUUAUCUACCUGUACTT against Chad | inactive: -1.77 |
| GGCCAUGACGAGGAAGAUGTT against Sv2b | inactive: -0.865 |
| GCAUAUGACACCGUAUCAGTT against Gprc5d | inactive: 0.914 |
| GGACACAGAAAAAGUUGAATT against Tbc1d4 | inactive: -0.0174 |
| CGUAUGACUAAGGAUGAAUTT against Lrrc57 | inactive: 0.849 |
| GGGUACCUUCUGAUGUUUUTT against Slx1b | inactive: 0.0863 |
| GGCGCAUGUUUCCAGCAAUTT against Tbx18 | inactive: -0.0344 |
| CCUGUUGCUUACAAUUUUUTT against Yy1 | inactive: 0.283 |
| GGUGCUUCUUUUGAGAAUGTT against Engase | inactive: -1.77 |
| GGACAACAACGAGACCUAATT against Osbpl11 | inactive: -1.75 |
| GGAUCAUGGGUAUGGUACUTT against Dhx36 | inactive: -1.52 |
| GCCCAACACUUGUUAAAGCTT against Fdxr | inactive: -0.74 |

Copied from the list:
z-score with GCCCAACACUUGUUAAAGCTT against Fdxr reads inactive: -0.74
z-score with GGAUCAUGGGUAUGGUACUTT against Dhx36 reads inactive: -1.52

The list continues.

| Sequence | z-score |
| --- | --- |
| GCCGAGCUCAAUGUGGGUATT against Bsn | inactive: 1.11 |
| GAAAAAUCAAAGAGAUUGGTT against Slc26a11 | inactive: 0.0264 |
| GGAUCUUGAACAAACCUGGTT against Akr1b3 | inactive: -1.64 |
| GCCGACAGAUUGAAAUUCGTT against Supv3l1 | active: 2.79 |
| GGGAAGGUGGUGGAUCUACTT against Adss | inactive: 0.351 |
| GGCUUUUCUGGCUAUCCACTT against Anxa7 | inactive: -0.774 |
| CCAUUUCUAAGUGUGAAAGTT against Vsir | inactive: -0.196 |
| GGCCUGGAAGUCAUAUCUGTT against Grhl2 | inactive: -0.293 |
| GGAUAUGACUGAUAUUGAUTT against Il18 | inactive: 0.164 |
| GGUAAAAACCAGACAGAUGTT against Olfr835 | inactive: 0.412 |
| CGUCGUAGCAAACCACCAATT against Tnf | inactive: -1.07 |
| GGGACUUCAAAAGCAAGAATT against Acvr2b | inactive: 0.209 |
| CGGGCUCUUGUAGAUUUCATT against Ccdc86 | active: 3.22 |
| CCGGUCACUUGAAAUCAUGTT against Spp2 | inactive: -0.976 |
| GCAUUGAGUGCAUUAGAAUTT against Gnai1 | inactive: -1.28 |
| GGCUACAUUGUCUCAUUGUTT against Opn1mw | inactive: -0.59 |
| CCUGGUGUAGAAGUAUAUUTT against Lcat | inactive: -0.299 |
| GCACAAUCUUGUCAAAUUGTT against Birc2 | inactive: -0.934 |
| GGUUCUUGUUUGUUGUGGUTT against Olfr94 | inactive: -0.395 |
| GGUGAUAUGUGUGGGCUUGTT against Fahd2a | active: -2.06 |
| GCAGUGUUUACUUAUCACGTT against Il10ra | inactive: 0.472 |
| CCUUUUGAGAGCUCCAGAUTT against Ptrh1 | inactive: -0.273 |
| GGCCUUUGAUGACAUGUACTT against Bpifb1 | inactive: -0.378 |

| Sequence | z-score |
| --- | --- |
| GCUGCUGGAUGCAACCAAATT against Slc16a3 | inactive: -0.379 |
| GGAAAUCUCUGGGAUAAUUTT against Hsd11b1 | inactive: 0.463 |
| GGAGACAAGCUAAUUGAGATT against Ppp1r8 | inactive: -0.584 |
| CCUCAUCAAUUGGUUAGAATT against Brip1 | inactive: -0.469 |
| ACACUCCUAAAUUGAUCAUTT against Olfr1258 | inactive: -0.282 |
| CGGCAAAUUCGUGAAAAGGTT against Olfr575 | inactive: 0.118 |
| GCUCACUUGAUUCUGGUAATT against Ifnz | inactive: 0.416 |
| GGUCUUUUUAUCCCAUUGUTT against Olfr1298 | inactive: -1.93 |
| GGCAACUCUCGAAUCUUUUTT against Abhd14a | inactive: -0.133 |
| GGACUCUGUCCUUUUCAAATT against Wdr66 | inactive: -0.599 |
| GGGAAGAUCACAUUUUCGCTT against Ephx2 | inactive: 0.0157 |
| GGUAUUAUCUAACUCUAGCTT against Slc25a32 | inactive: 1.59 |
| CCAGCGAACAAAAUGAGGATT against Dusp23 | inactive: 0.126 |
| GGGCAUGCCCAAGAGAAUATT against Tcp1 | inactive: 0.349 |
| GGAAAUCUUCAGAAAAAGATT against Gucy1a1 | inactive: -0.434 |
| GCUGACACAUUUUCACAUGTT against Itgax | inactive: 1.19 |
| GACUACAUUUAUAGCCCAATT against Olfr1262 | inactive: -0.166 |
| CGCUGCUAAGAAUCAUCUATT against Ednrb | inactive: 0.287 |
| GGACAUCUGGCUAAGGAACTT against Duxbl1 | inactive: -1.05 |
| GGGACUUGCCUUUCAUUCUTT against Acads | inactive: 0.921 |
| GGCUUUUAUUGUCCUGAAUTT against Acsm3 | inactive: -0.299 |
| CCAUUAAUAUCUUCUCUUCTT against Olfr1079 | inactive: 0.735 |
